Two substances from PMC2841635 can be followed below.

Results are given in words; binding and its absence hold for the method and conditions named. In cells and extracts the contact can be indirect. Binding can be weak; no strength is given. Sequences can lack the tags named with a protein.

This assay deals with T1, activated Ack1, caAck (L487F mutant), myc-tagged (UniProt Q07912).
T1 sequence: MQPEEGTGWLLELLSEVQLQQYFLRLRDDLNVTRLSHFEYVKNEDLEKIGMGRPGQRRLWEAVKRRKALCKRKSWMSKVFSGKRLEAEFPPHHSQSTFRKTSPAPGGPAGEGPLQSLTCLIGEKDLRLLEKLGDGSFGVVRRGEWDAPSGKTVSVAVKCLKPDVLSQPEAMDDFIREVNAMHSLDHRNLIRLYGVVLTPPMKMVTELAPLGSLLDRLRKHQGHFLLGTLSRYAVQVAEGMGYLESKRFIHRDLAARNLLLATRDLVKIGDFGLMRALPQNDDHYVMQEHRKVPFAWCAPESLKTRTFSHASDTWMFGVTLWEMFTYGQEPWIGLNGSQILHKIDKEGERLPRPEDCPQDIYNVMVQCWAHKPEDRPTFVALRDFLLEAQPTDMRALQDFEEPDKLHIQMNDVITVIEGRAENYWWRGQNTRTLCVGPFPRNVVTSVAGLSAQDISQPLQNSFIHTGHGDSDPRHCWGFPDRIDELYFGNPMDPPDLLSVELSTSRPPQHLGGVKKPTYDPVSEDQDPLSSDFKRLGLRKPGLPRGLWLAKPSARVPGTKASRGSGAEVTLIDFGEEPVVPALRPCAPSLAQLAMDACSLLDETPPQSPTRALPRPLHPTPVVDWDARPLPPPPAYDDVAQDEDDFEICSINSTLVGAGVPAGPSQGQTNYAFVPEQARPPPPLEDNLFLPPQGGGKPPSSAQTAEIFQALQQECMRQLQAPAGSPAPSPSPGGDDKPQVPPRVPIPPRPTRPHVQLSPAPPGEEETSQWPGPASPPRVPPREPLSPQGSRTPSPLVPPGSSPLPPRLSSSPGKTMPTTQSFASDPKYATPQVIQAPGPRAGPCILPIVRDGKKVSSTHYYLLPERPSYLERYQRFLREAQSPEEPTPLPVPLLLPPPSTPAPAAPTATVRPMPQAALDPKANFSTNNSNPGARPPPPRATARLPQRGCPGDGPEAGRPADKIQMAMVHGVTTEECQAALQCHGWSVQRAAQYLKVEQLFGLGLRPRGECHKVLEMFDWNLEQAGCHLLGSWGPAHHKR
The experiment in a line: co-IP; HEK293 cells co-transfected with HA-tagged AKT deletions and myc-tagged caAck; IP with Myc antibodies, IB with HA antibodies.

Consider “HA-tagged AKT deletion construct lacking the PH domain (ΔPH-AKT) (domain or fragment)”, for which the binding entry is “binds weakly”.

As to “HA-tagged AKT lacking carboxy terminus (ΔCT-AKT) (domain or fragment)”, the binding entry was “binds”.
